Like-named read-outs stand apart in the source and are kept apart here.
Key:
Htr3a mRNA = conditions: C57BL/6J mice after chronic morphine treatment, relative to saline (FIG. 6B)

## CN1CC[C@]23c4c5ccc(O)c4O[C@H]2[C@@H](O)C=C[C@H]3[C@H]1C5 [morphine]
Htr3a mRNA
  reduction of Htr3a mRNA expression in brainstem nuclei (amygdala, dorsal raphe, periaqueductal gray): 2 to 5 fold
5-HT3 protein; 129/SvlmJ mice after morphine treatment
  5-HT3 content of brainstem protein preparations: no such changes were observed
5-HT3 protein; C57BL/6J mice after morphine treatment
  5-HT3 content of brainstem protein preparations: statistically significant decreases
